Source: publication PMC12774626
Results are given in words; binding and its absence hold for the method and conditions named. In cells and extracts the contact can be indirect. A result given as binding can be weak or reduced; the word gives no strength. Where a sequence is shown, tags or fusion partners need not be part of it. Values belong to the molecule of their own block, whether it stands above or below them.

Protein sequences, listed by entry. Tags and fused reporters are not part of them. Lines headed by an entry give the natural chain unless they say otherwise; changes in a name come on top. Chains listed by the source or under a name are the forms on record and can include a tag or linker.
UniProt Q8IXL6: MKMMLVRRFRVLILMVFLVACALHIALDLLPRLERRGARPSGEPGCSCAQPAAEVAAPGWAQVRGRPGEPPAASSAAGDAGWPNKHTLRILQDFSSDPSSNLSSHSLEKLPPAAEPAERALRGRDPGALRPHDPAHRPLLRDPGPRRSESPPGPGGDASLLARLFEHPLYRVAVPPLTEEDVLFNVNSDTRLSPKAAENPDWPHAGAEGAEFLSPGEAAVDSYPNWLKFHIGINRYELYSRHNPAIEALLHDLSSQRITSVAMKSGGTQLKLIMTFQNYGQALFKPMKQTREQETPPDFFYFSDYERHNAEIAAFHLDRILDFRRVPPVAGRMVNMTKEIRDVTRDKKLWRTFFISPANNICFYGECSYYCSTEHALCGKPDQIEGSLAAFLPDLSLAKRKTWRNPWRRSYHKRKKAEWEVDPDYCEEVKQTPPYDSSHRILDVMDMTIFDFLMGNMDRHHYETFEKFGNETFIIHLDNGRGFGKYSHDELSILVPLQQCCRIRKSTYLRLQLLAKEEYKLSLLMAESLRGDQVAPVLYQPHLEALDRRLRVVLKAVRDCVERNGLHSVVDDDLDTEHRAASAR
Scaffold attachment factor B, HA-tagged (SAFB-HA) (Q15424-3, form named): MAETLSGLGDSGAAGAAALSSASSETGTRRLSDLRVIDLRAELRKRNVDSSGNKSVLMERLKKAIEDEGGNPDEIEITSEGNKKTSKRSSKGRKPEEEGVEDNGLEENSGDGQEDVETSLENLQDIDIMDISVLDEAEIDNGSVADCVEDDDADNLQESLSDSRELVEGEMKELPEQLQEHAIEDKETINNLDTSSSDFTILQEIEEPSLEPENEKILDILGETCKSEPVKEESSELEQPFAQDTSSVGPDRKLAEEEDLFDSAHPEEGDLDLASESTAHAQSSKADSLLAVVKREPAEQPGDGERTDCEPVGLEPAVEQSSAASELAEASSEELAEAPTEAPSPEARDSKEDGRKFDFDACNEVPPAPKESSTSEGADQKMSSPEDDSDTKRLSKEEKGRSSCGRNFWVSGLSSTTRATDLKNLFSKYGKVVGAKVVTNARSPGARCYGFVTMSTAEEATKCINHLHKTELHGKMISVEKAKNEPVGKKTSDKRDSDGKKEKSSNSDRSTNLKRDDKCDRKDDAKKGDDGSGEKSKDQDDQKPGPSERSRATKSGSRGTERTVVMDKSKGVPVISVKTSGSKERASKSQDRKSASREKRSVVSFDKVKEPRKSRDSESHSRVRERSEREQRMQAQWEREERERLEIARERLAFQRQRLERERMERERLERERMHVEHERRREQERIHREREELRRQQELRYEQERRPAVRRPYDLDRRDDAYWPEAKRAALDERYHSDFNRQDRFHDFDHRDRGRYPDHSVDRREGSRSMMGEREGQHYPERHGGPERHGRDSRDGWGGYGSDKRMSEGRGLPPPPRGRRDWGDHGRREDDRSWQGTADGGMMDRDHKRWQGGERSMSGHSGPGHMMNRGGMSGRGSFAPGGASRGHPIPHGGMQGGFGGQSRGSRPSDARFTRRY

Assays:
[1] = molecular target: Extracellular serine/threonine protein kinase FAM20C, FLAG-tagged (FAM20C-FLAG) (UniProt Q8IXL6); experiment: co-IP; plasmids co-transfected into HEK293T cells in specified combinations; which partner was precipitated is not stated
[2] = molecular target: FAM20C-D478A-FLAG, catalytically inactive variant (UniProt Q8IXL6); experiment: as above

Molecule: Scaffold attachment factor B, HA-tagged (SAFB-HA) (from UniProt Q15424-3 1-917)
binding [1]: binds | binding [2]: binds

Molecule: Sequestosome 1, HA-tagged (SQSTM1-HA) (from UniProt Q13501-2 1-356)
binding [1]: no binding | binding [2]: no binding

B1: Diacylglycerol lipase-alpha, HA-tagged (DAGLA-HA) (enzyme, UniProt Q9Y4D2 1-1042)
chain: MPGIVVFRRRWSVGSDDLVLPAIFLFLLHTTWFVILSVVLFGLVYNPHEACSLNLVDHGRGYLGILLSCMIAEMAIIWLSMRGGILYTEPRDSMQYVLYVRLAILVIEFIYAIVGIVWLTQYYTSCNDLTAKNVTLGMVVCNWVVILSVCITVLCVFDPTGRTFVKLRATKRRQRNLRTYNLRHRLEEGQATSWSRRLKVFLCCTRTKDSQSDAYSEIAYLFAEFFRDLDIVPSDIIAGLVLLRQRQRAKRNAVLDEANNDILAFLSGMPVTRNTKYLDLKNSQEMLRYKEVCYYMLFALAAYGWPMYLMRKPACGLCQLARSCSCCLCPARPRFAPGVTIEEDNCCGCNAIAIRRHFLDENMTAVDIVYTSCHDAVYETPFYVAVDHDKKKVVISIRGTLSPKDALTDLTGDAERLPVEGHHGTWLGHKGMVLSAEYIKKKLEQEMVLSQAFGRDLGRGTKHYGLIVVGHSLGAGTAAILSFLLRPQYPTLKCFAYSPPGGLLSEDAMEYSKEFVTAVVLGKDLVPRIGLSQLEGFRRQLLDVLQRSTKPKWRIIVGATKCIPKSELPEEVEVTTLASTRLWTHPSDLTIALSASTPLYPPGRIIHVVHNHPAEQCCCCEQEEPTYFAIWGDNKAFNEVIISPAMLHEHLPYVVMEGLNKVLENYNKGKTALLSAAKVMVSPTEVDLTPELIFQQQPLPTGPPMPTGLALELPTADHRNSSVRSKSQSEMSLEGFSEGRLLSPVVAAAARQDPVELLLLSTQERLAAELQARRAPLATMESLSDTESLYSFDSRRSSGFRSIRGSPSLHAVLERDEGHLFYIDPAIPEENPSLSSRTELLAADSLSKHSQDTQPLEAALGSGGVTPERPPSAAANDEEEEVGGGGGGPASRGELALHNGRLGDSPSPQVLEFAEFIDSLFNLDSKSSSFQDLYCMVVPESPTSDYAEGPKSPSQQEILLRAQFEPNLVPKPPRLFAGSADPSSGISLSPSFPLSSSGELMDLTPTGLSSQECLAADKIRTSTPTGHGASPAKQDELVISAR
binding [1]: binds | binding [2]: binds

Results, then the molecule that gave them:

binding [1]: binds | binding [2]: binds
Molecule: KRAB-associated protein 1, HA-tagged (KAP1-HA), in HEK293T (from UniProt Q13263-1 1-835)

binding [1]: binds | binding [2]: binds
B2: Adenosine deaminase RNA specific (ADAR), in HEK293T (enzyme, UniProt P55265-5 1-931)
chain: MAEIKEKICDYLFNVSDSSALNLAKNIGLTKARDINAVLIDMERQGDVYRQGTTPPIWHLTDKKRERMQIKRNTNSVPETAPAAIPETKRNAEFLTCNIPTSNASNNMVTTEKVENGQEPVIKLENRQEARPEPARLKPPVHYNGPSKAGYVDFENGQWATDDIPDDLNSIRAAPGEFRAIMEMPSFYSHGLPRCSPYKKLTECQLKNPISGLLEYAQFASQTCEFNMIEQSGPPHEPRFKFQVVINGREFPPAEAGSKKVAKQDAAMKAMTILLEEAKAKDSGKSEESSHYSTEKESEKTAESQTPTPSATSFFSGKSPVTTLLECMHKLGNSCEFRLLSKEGPAHEPKFQYCVAVGAQTFPSVSAPSKKVAKQMAAEEAMKALHGEATNSMASDNQPEGMISESLDNLESMMPNKVRKIGELVRYLNTNPVGGLLEYARSHGFAAEFKLVDQSGPPHEPKFVYQAKVGGRWFPAVCAHSKKQGKQEAADAALRVLIGENEKAERMGFTEVTPVTGASLRRTMLLLSRSPEAQPKTLPLTGSTFHDQIAMLSHRCFNTLTNSFQPSLLGRKILAAIIMKKDSEDMGVVVSLGTGNRCVKGDSLSLKGETVNDCHAEIISRRGFIRFLYSELMKYNSQTAKDSIFEPAKGGEKLQIKKTVSFHLYISTAPCGDGALFDKSCSDRAMESTESRHYPVFENPKQGKLRTKVENGEGTIPVESSDIVPTWDGIRLGERLRTMSCSDKILRWNVLGLQGALLTHFLQPIYLKSVTLGYLFSQGHLTRAICCRVTRDGSAFEDGLRHPFIVNHPKVGRVSIYDSKRQSGKTKETSVNWCLADGYDLEILDGTRGTVDGPRNELSRVSKKNIFLLFKKLCSFRYRRDLLRLSYGEAKKAARDYETAKNYFKKGLKDMGYGNWISKPQEEKNFYLCPV
